Source: US11712440B2, “Predictive markers for ATR kinase inhibitors” (Bayer Aktiengesellschaft, priority 2017, dated 2023)

Tests used:
Assay in all cases: cells
Settings in all cases: Gallus gallus, DT40, 72 h
[1] = test system: DT40 CtIP+/−/− cells (RBBP8 heterozygous knockout)
[2] = test system: DT40 CtIPs/−/− cells (RBBP8, S322A mutation)
[3] = test system: wild-type DT40 chicken lymphoma cells

IC50 [1]: 34 nM | IC50 [2]: 68 nM | IC50 [3]: 130 nM
Structure (SMILES): C[C@@H]1COCCN1c1cc(-c2ccnn2C)c2ccnc(-c3ccn[nH]3)c2n1 [Compound A, 2-[(3R)-3-methylmorpholin-4-yl]-4-(1-methyl-1H-pyrazol-5-yl)-8-(1H-pyrazol-5-yl)-1,7-naphthyridine]
